This assay addresses cynomolgus monkey NTB-A (cynomolgus monkey). The assay is described as follows: flow cytometry on stable 293-F17 transfectants. On the technique in general: A flow cytometer gives signals particle by particle.

These are yes or no findings as the source states them, for the method shown.

B1: 26B7 murine IgG1 antibody (antibody, V domains shown)
VH: QVQLLQPGAEVVKPGTSVKLSCKASGYNFTIYWINWVKLRPGQGLEWIGDIHPGRGNTNLNEKFKTKATLTVDTSSSTAYMQLNSLAFEDSALYYCAREDEDWYFDVWGAGTTVTVSS
VL: DIQMNQSPSSLSASLGDTITITCRASQGISIWFNWYQQKSGNIPKLLIYKTSNLHTGVPPRFSGSGSGTDFTLTISSLQPEDIATYYCLQSQSYPYTFGGGTKLEIKR
notes: Murine IgG1; also called mAb 26B7
As to B1, the binding result is recorded as “no binding (tested: 2 µg/mL)”.
